Values of other authors, collected in patent US20070225544A1, “APPARATUSES AND TECHNIQUES FOR BIOACTIVE DRUG DELIVERY IN THE PROSTATE GLAND” (priority 2006, published 2007).

C[C@@H]1C[C@H]2[C@@H]3CCC4=CC(=O)C=C[C@]4(C)[C@@]3(F)[C@@H](O)C[C@]2(C)[C@@]1(O)C(=O)COP(=O)(O)O [Dexamethasone sodium phosphate]
Duration (relative duration of action of injectable corticosteroid agent): Long | Potency (relative potency of injectable corticosteroid agent): High
